EP3454861B1, “BENZOXAZINE OR QUINAZOLINE DERIVATIVES FOR USE IN THE TREATMENT OF ALZHEIMER'S DISEASE” (Biocodex, priority 2016, dated 2017)

Columns and labels:
Assay type in all cases: in vivo, souris
Conditions in all cases: Aβ25-35/DPZ 1 (1 mg/kg IP)
[1] = tested on: Bax; experiment: ELISA of Bax in mouse hippocampus after Aβ25-35
From the text: (§1) Le 1^er jour : une version « mélangée » (scrambled) du peptide amyloïde β25-35 (Sc.Aβ, témoin négatif) ou le peptide amyloïde β25-35 (Aβ25-35) est injecté par voie intra-cérébroventriculaire (ICV) (le peptide Aβ25-35 provoque l'intoxication cellulaire). Entre le 1^er jour et le 10^ème jour, les traitements sont administrés une fois par jour par voie intrapéritonéale (IP).
(§2) A la fin de la session de rétention d'évitement passif, le 10^ème jour, les animaux sont sacrifiés par décapitation. L'hippocampe et le cortex frontal sont disséqués et congelés dans l'azote liquide. L'hippocampe est utilisé pour mesurer le taux de peroxydation lipidique à l'aide d'une méthode colorimétrique et pour évaluer les taux de 4 marqueurs biochimiques par des tests ELISA. Le cortex est conservé à -80°C en attente d'analyses supplémentaires. Les plasmas sont également conservés en attente d'analyses supplémentaires. Les échantillons biologiques sont jetés après 3 mois.
(§3) Pour tous les dosages, les […] sont homogénéisés, après décongélation, dans un tampon Tris (Tris 50 mM, 150 mM NaCl, pH 7,5) et traités par ultrasons pendant 20 secondes. […] Pour chaque dosage, l'absorbance est lue à 450 nm et la concentration est calculée en utilisant la courbe standard. Les résultats sont exprimés en pg ou ng de marqueur par mg de tissu et en pourcentage de solution Sc.Aβ + véhicule. […]

[2] = tested on: Bcl2; experiment: ELISA of Bcl2 in mouse hippocampus after Aβ25-35
From the text: as §1, §2, §3

[3] = tested on: GFAP; experiment: ELISA of GFAP in mouse hippocampus after Aβ25-35
From the text: as §1, §2, §3

[4] = tested on: Caspase-3; experiment: ELISA of Caspase-3 in mouse hippocampus after Aβ25-35
From the text: as §1, §2, §3

COc1cc2c(cc1OC)C(=O)C(CC1CCN(Cc3ccccc3)CC1)C2.Cl.O (stereo not shown) [Donépézil, 2-[(1-benzyl-4-piperidyl)methyl]-5,6-dimethoxy-2,3-dihydroinden-1-one, hydrochloride, hydrate (1:1:1)]
Taux de protéine Bax [1]: 95,7 ± 4,3 % de Sc.Aβ/V | Taux de protéine Bcl2 [2]: 100,3 ± 3 % de Sc.Aβ/V | Expression GFAP [3]: 110,3 ± 6,8 % de Sc.Aβ/V | Expression CASP-3 [4]: 98,7 ± 4,3 % de Sc.Aβ/V
